Laboratory results published in patent publication US20220332844A1 (ORIONIS BIOSCIENCES, published 2022).
Numbering of substitutions follows the chain as printed. No constants are given. Whether binding was seen depends on the method and setting. Binding can be weak; no strength is given.

B1: P-2219: 2PE14_OptA (Q1D_Q5V_N32W_A74S_K83R_Q108L) (VHH)
VHH: DVQLVESGGGLVQPGGSLRLSCAASGSTFSIWAVAWYRQAPGKRRELVAGISGGGVTNYPDSVKGRFTISRDNSKNTVYLQMSSLRPEDTAVYYCNLWPPRASPGGRVYWGQGTLVTVSS
B2: P-2220: 2PE14_OptB (Q1D_Q5V_N32W_A74S_S82N_K83R_Q108L) (VHH)
VHH: B1 VHH with S83N
B3: P-2222: 3PE42_OptB (Q1D_Q5V_M31D_N32W_A74S_K83R_Q108L) (VHH)
VHH: B1 VHH with F29S, I31D, V34M, V56A, R107G

target: recombinant FAP protein (BioLegend), biotinylated (Homo sapiens (Human)); assay: BLI, biotinylated FAP on streptavidin sensors (FIG. 24)

binding, binds:
B1
B2
B3
